# From the supplement of paper PMC10060354, “Discovery of a small molecule ligand of FRS2 that inhibits invasion and tumor growth” (Cellular Oncology, 2022)
# Chains of the proteins cited; added tags and fusions are not shown. Lines headed by an entry give the natural chain unless they say otherwise; changes in a name come on top.
# UniProt Q92922, whole entry: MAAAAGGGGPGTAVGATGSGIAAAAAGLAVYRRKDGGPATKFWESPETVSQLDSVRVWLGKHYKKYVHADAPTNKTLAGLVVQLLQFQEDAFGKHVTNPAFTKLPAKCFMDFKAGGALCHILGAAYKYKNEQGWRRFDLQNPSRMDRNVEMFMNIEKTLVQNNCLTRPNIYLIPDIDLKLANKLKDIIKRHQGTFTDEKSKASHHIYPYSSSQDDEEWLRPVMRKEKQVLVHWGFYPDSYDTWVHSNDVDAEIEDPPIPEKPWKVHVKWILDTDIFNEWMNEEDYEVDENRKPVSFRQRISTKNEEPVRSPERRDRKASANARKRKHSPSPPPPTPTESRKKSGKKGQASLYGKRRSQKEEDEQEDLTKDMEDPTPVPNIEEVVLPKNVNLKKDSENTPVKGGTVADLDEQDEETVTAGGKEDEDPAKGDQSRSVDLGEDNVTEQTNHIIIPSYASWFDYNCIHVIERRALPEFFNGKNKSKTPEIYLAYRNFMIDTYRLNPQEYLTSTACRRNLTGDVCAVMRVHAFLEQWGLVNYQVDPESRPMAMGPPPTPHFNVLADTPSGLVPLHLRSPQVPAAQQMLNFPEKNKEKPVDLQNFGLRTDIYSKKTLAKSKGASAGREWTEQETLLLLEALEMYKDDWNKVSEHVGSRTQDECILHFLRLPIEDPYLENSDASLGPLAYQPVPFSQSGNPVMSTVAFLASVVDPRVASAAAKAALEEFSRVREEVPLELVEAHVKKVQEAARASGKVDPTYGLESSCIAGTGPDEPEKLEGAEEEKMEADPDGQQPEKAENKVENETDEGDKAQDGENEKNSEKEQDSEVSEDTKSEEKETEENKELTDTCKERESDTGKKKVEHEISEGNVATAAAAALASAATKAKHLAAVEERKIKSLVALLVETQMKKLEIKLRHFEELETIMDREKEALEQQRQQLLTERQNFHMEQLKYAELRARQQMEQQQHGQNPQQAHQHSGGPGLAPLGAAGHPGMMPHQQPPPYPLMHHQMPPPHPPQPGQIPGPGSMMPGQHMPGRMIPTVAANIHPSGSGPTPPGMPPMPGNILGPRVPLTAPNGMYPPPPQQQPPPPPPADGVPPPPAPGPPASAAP
# UniProt Q9BT23: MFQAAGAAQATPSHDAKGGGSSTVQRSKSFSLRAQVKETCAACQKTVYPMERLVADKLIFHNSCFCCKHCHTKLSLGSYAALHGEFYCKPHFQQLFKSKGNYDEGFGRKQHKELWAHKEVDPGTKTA
# UniProt O14543: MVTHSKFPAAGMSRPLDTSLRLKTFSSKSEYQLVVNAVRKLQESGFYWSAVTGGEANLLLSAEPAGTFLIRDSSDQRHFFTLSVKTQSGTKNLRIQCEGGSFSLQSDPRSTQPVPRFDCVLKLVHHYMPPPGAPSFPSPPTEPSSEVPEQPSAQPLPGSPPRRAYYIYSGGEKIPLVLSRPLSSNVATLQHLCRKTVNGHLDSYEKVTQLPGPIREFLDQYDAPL
# UniProt Q16643: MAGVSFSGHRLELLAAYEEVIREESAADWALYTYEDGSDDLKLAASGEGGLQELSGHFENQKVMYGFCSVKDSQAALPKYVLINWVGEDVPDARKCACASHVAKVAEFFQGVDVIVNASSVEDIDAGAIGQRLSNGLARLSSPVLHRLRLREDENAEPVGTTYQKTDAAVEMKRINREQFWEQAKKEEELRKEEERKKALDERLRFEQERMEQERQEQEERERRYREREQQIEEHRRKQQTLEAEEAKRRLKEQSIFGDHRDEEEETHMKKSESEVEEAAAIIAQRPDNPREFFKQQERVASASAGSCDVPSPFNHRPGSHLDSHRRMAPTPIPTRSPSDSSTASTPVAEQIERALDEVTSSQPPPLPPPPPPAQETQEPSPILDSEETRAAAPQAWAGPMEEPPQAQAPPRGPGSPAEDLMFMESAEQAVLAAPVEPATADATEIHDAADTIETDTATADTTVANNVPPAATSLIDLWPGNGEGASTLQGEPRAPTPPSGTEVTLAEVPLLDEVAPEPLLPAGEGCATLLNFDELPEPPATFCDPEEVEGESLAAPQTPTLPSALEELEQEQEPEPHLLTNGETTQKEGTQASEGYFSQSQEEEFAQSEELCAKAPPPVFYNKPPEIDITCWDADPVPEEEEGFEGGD
# UniProt Q14974, whole entry: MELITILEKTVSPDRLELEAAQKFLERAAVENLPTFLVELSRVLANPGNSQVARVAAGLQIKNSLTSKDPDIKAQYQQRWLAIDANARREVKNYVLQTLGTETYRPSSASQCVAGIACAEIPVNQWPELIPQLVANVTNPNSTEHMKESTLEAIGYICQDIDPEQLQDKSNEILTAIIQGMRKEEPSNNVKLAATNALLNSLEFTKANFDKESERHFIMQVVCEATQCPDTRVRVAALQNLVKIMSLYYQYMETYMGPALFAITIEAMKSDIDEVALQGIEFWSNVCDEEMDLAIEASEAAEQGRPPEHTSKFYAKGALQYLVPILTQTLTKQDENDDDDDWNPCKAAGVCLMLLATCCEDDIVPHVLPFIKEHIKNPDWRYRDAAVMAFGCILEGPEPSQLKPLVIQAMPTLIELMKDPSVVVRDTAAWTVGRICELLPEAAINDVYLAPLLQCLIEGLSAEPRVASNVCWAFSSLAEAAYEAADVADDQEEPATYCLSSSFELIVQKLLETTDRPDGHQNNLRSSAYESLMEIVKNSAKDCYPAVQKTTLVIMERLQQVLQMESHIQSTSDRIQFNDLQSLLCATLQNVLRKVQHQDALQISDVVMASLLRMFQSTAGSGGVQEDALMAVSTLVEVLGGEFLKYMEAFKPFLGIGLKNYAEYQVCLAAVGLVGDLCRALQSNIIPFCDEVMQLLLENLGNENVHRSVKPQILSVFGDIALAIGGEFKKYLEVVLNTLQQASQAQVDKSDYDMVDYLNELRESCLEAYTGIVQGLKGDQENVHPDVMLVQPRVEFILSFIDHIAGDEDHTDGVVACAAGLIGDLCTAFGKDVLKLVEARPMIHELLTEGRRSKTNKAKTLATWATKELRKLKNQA
# UniProt Q14149: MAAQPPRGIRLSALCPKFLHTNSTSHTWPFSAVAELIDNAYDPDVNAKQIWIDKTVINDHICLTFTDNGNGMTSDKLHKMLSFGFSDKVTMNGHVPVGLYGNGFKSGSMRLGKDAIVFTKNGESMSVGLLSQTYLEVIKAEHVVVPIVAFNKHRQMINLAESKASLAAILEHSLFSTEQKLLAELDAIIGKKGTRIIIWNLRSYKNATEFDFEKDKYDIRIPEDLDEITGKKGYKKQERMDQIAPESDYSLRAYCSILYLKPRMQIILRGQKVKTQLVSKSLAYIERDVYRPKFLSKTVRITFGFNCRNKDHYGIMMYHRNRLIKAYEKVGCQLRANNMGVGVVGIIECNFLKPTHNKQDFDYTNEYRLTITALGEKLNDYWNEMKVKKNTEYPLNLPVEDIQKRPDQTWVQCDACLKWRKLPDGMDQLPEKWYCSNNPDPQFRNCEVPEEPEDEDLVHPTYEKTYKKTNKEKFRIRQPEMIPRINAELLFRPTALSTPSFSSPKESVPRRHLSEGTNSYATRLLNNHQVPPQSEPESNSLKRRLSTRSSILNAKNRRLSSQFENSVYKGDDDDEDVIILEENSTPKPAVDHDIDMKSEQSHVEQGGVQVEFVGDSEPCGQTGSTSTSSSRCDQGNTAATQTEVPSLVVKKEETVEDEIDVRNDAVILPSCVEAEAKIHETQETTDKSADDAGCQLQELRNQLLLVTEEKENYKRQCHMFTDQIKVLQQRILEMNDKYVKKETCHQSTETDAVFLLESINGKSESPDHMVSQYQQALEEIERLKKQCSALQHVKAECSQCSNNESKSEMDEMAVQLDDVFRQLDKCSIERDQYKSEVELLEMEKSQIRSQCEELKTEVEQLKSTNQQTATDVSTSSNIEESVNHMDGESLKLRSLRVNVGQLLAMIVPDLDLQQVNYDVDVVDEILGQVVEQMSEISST
# UniProt P51161: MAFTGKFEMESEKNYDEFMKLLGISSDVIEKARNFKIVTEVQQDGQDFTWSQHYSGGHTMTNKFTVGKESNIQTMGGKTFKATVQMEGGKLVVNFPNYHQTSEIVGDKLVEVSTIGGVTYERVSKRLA
# UniProt Q9Y4B6: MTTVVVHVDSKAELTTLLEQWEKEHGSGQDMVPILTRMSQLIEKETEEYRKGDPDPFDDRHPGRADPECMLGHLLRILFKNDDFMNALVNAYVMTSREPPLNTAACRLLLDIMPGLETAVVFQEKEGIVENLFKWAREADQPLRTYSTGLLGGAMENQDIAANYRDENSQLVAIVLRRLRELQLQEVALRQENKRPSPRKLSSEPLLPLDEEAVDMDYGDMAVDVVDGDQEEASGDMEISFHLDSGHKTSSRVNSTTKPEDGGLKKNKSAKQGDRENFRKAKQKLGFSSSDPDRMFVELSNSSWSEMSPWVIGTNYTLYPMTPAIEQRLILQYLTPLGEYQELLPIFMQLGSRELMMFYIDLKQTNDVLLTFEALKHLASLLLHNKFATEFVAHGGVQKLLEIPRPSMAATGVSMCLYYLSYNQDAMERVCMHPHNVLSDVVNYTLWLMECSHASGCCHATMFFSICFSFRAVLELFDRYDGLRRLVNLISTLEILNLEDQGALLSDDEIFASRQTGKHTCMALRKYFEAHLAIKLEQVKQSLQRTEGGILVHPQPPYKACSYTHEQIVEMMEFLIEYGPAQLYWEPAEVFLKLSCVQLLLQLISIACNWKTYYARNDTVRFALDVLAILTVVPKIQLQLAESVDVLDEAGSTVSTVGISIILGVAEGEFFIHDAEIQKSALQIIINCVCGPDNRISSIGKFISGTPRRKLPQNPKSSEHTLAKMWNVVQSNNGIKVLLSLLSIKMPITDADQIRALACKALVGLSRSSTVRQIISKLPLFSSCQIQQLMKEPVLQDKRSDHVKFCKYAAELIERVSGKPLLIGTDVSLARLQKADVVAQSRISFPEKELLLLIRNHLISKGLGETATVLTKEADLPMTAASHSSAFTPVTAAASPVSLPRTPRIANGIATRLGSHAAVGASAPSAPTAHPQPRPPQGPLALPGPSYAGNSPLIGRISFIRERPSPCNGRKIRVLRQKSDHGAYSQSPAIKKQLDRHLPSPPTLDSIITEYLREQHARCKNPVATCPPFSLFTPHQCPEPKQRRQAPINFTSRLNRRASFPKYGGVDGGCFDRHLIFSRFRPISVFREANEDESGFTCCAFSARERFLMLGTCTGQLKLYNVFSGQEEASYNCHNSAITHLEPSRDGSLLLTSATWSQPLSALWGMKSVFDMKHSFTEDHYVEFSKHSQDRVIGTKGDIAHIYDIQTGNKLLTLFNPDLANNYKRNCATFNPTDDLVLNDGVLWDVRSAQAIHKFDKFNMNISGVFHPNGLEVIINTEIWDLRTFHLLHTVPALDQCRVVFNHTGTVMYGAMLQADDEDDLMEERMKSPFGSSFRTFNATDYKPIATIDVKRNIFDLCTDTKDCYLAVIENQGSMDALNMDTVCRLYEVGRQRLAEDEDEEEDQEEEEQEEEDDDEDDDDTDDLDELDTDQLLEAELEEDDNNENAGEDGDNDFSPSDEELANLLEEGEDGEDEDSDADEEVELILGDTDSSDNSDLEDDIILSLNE
# UniProt P50454: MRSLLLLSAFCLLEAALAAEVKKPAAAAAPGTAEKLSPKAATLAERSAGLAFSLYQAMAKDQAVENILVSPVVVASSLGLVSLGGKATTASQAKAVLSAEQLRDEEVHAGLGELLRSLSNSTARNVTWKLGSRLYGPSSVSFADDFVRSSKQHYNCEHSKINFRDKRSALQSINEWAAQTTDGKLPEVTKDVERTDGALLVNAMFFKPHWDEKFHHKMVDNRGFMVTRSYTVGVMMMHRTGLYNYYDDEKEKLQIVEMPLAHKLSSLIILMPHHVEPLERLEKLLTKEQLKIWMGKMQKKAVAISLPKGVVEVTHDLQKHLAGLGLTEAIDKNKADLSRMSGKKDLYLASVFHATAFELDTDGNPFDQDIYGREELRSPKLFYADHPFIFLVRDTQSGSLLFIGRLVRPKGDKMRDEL
# UniProt Q9H267: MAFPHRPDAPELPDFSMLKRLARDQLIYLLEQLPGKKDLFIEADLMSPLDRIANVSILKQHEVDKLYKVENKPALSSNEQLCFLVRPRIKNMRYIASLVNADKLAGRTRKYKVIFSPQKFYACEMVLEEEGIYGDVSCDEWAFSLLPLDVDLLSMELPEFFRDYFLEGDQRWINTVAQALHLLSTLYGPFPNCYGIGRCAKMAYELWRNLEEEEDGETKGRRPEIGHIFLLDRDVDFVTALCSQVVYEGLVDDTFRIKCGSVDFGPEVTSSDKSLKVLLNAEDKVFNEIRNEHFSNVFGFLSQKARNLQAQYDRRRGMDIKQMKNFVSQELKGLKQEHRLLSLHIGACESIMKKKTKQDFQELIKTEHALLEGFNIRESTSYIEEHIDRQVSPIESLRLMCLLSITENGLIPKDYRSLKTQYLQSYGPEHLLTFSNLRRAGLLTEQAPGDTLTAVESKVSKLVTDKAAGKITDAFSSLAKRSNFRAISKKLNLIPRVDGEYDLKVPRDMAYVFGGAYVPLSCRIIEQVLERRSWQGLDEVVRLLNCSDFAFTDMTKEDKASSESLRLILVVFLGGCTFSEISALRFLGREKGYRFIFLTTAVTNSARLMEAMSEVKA
# Single values are uncertain, as repeats are few or missing.
# Compound: [O-][N+](C(C1=C(C(O)=C2)NC(C(C=C3)=CC=C3Cl)C4C1C=CC4)=C2Cl)=O
# Experiment: melting temperature shift (compound 7 minus DMSO); higher = compound stabilises the protein
# Conditions: 10 µM
# Experimental: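 Thermal proteome profiling (TMT mass spectrometry) in intact DAOY medulloblastoma cells or DAOY lysates treated with 10 µM compound 7 or DMSO, heated at 10 temperatures from 40.5 to 73.8 °C for 3 min. Melting curves were fitted with the Bioconductor TPP package, and the melting point difference between compound and vehicle is reported per protein (single curve per condition).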
# [1] = system: DAOY cell lysate, treatment time: 20 min, 4 °C
# [2] = system: intact DAOY cells, treatment time: 90 min, 37 °C
Target,melting temperature shift [1],melting temperature shift [2]
SMARCC1 (UniProt Q92922),0.229 °C,-0.793 °C
UniProt Q9H0R5,,0.411 °C
METTL3 (UniProt Q86U44),-1.21 °C,0.35 °C
HNRNPDL (UniProt O14979),1.35 °C,0.436 °C
DDRGK1 (UniProt Q96HY6),1.99 °C,0.83 °C
LIG4 (UniProt P49917),1.5 °C,
ASH2L (UniProt Q9UBL3),0.24 °C,-0.263 °C
SUB1 (UniProt P53999),-0.533 °C,0.401 °C
CMSS1 (UniProt Q9BQ75),1.56 °C,
UniProt Q14207,3.02 °C,
UniProt Q9BT23,-4.16 °C,
RNF34 (UniProt Q969K3),-1.24 °C,
GPRIN1 (UniProt Q7Z2K8),0.946 °C,
TCP1 (UniProt P17987),-0.331 °C,-0.495 °C
UniProt O14543,,-1.69 °C
NFKB1 (UniProt P19838),0.449 °C,0.689 °C
PHB (UniProt P35232),2.78 °C,0.296 °C
UniProt Q8N2C7,0.46 °C,
UniProt C4AMC7,,1.4 °C
UniProt Q9P291,-0.252 °C,-1.39 °C
GMFB (UniProt P60983),-0.0803 °C,-1.27 °C
PAPSS2 (UniProt O95340),0.151 °C,-0.44 °C
PNPO (UniProt Q9NVS9),0.00691 °C,1.62 °C
ITGB1 (UniProt P05556),2.98 °C,

# Four entries from above, with tabs.
Target	melting temperature shift [1]	melting temperature shift [2]
UniProt C4AMC7		1.4 °C
UniProt Q9P291	-0.252 °C	-1.39 °C
GMFB (UniProt P60983)	-0.0803 °C	-1.27 °C
PAPSS2 (UniProt O95340)	0.151 °C	-0.44 °C

# Following part.

Target,melting temperature shift [1],melting temperature shift [2]
COTL1 (UniProt Q14019),-2.23 °C,-0.326 °C
ZW10 (UniProt O43264),-0.362 °C,-0.547 °C
MICU1 (UniProt Q9BPX6),2.3 °C,-1.03 °C
TMEM56 (UniProt Q96MV1),-0.0705 °C,-2.06 °C
UniProt P0DJD1,,-1.81 °C
DBN1 (UniProt Q16643),,0.844 °C
YTHDF2 (UniProt Q9Y5A9),-0.0658 °C,0.379 °C
STOML2 (UniProt Q9UJZ1),3.28 °C,-0.597 °C
UniProt Q6BEB4,,1.33 °C
EIF4G2 (UniProt P78344),-0.338 °C,-0.821 °C
STARD7 (UniProt Q9NQZ5),0.313 °C,0.806 °C
AKT2 (UniProt P31751),-0.681 °C,-0.354 °C
TWF1 (UniProt Q12792),-0.427 °C,0.869 °C
STK11 (UniProt Q15831),2.15 °C,-3.02 °C
UniProt P63162,,1.48 °C
NFIB (UniProt O00712),1.36 °C,
ARID1A (UniProt O14497),-1.25 °C,-0.551 °C
UniProt O75326,0.549 °C,
UniProt P50479,-2.48 °C,-0.0579 °C
GLRX5 (UniProt Q86SX6),0.499 °C,1.04 °C
NFU1 (UniProt Q9UMS0),0.733 °C,-0.58 °C
P4HA2 (UniProt O15460),1.47 °C,0.654 °C
SNRNP200 (UniProt O75643),-0.0373 °C,0.617 °C
TNFRSF10B (UniProt O14763),4.36 °C,

Target,melting temperature shift [1],melting temperature shift [2]
QPCTL (UniProt Q9NXS2),1.53 °C,-1.41 °C
APTX (UniProt Q7Z2E3),1.51 °C,3.5 °C
KPNB1 (UniProt Q14974),-0.0537 °C,0.0097 °C
UniProt P51668,,-0.256 °C
ODC1 (UniProt P11926),,-0.00478 °C
NNMT (UniProt P40261),-1.01 °C,-0.117 °C
GAPVD1 (UniProt Q14C86),-0.972 °C,-0.59 °C
UniProt Q6A1A2,,-1.18 °C
UniProt P06331,,-2.27 °C
UniProt Q9Y5W8,,-0.0345 °C
SPAG5 (UniProt Q96R06),-1.37 °C,-3.08 °C
TTC38 (UniProt Q5R3I4),-0.445 °C,
UniProt Q96D31,,2.02 °C
CLPTM1 (UniProt O96005),1.35 °C,0.261 °C
NUDCD3 (UniProt Q8IVD9),-0.72 °C,0.191 °C
SURF2 (UniProt Q15527),-0.556 °C,-0.772 °C
KLHL11 (UniProt Q9NVR0),1.35 °C,
EEF2K (UniProt O00418),-0.306 °C,
TRAPPC12 (UniProt Q8WVT3),-2.37 °C,-0.617 °C
UniProt P28300,1.29 °C,0.0768 °C
UniProt Q6UWV6,,2.16 °C
LANCL2 (UniProt Q9NS86),-0.748 °C,-0.496 °C
ATP2B4 (UniProt P23634),0.914 °C,-1.76 °C
UniProt Q8TBY8,-1.22 °C,0.353 °C

Target,melting temperature shift [1],melting temperature shift [2]
BAG4 (UniProt O95429),-2.35 °C,-3.57 °C
UniProt O00763,,0.482 °C
UBE2H (UniProt P62256),-0.0694 °C,0.431 °C
SKP2 (UniProt Q13309),-1.64 °C,
RETSAT (UniProt Q6NUM9),-0.0101 °C,0.908 °C
OSBP (UniProt P22059),-1.4 °C,-0.591 °C
ZWINT (UniProt O95229),-0.436 °C,-0.918 °C
DNAJC10 (UniProt Q8IXB1),0.788 °C,0.674 °C
MORC3 (UniProt Q14149),-0.779 °C,0.562 °C
JUP (UniProt P14923),-0.853 °C,
RNF126 (UniProt Q9BV68),-3.34 °C,
TP53BP1 (UniProt Q12888),-0.625 °C,0.655 °C
GXYLT1 (UniProt Q4G148),-0.221 °C,
ACIN1 (UniProt Q9UKV3),0.852 °C,3.09 °C
POLR2A (UniProt P24928),-0.21 °C,0.0215 °C
UniProt P51161,0.537 °C,-1.71 °C
UniProt Q96DE5,-0.502 °C,
RPS29 (UniProt P62273),1.6 °C,-0.818 °C
HPS5 (UniProt Q9UPZ3),-1.09 °C,0.282 °C
NSUN2 (UniProt Q08J23),0.255 °C,0.56 °C
CFAP20 (UniProt Q9Y6A4),-0.317 °C,0.738 °C
MTIF2 (UniProt P46199),0.23 °C,3.15 °C
ARL3 (UniProt P36405),-2.57 °C,-0.915 °C
NECTIN2 (UniProt Q92692),0.321 °C,-0.0321 °C

# Shown tab-delimited: part of the list above.
Target	melting temperature shift [1]	melting temperature shift [2]
UniProt O00763		0.482 °C
SKP2 (UniProt Q13309)	-1.64 °C	
OSBP (UniProt P22059)	-1.4 °C	-0.591 °C

# Carrying on.

Target,melting temperature shift [1],melting temperature shift [2]
UniProt Q4VXU2,,-0.247 °C
PIGG (UniProt Q5H8A4),0.44 °C,-0.747 °C
UniProt Q96SB3,,0.55 °C
UniProt O14521,1.76 °C,
UniProt P0CG22,,-0.278 °C
VPRBP (UniProt Q9Y4B6),-0.194 °C,-0.489 °C
RCC1 (UniProt P18754),0.26 °C,0.0698 °C
ZMYM2 (UniProt Q9UBW7),0.189 °C,
UniProt P61204,,-1.13 °C
PREPL (UniProt Q4J6C6),0.223 °C,0.153 °C
S100A13 (UniProt Q99584),-1.65 °C,-0.8 °C
SLC25A20 (UniProt O43772),2.57 °C,-2.31 °C
SERPINH1 (UniProt P50454),0.581 °C,0.513 °C
UniProt Q13308,1.05 °C,0.5 °C
VPS33B (UniProt Q9H267),-0.0106 °C,-0.138 °C
UniProt Q96KQ4,-0.339 °C,
RBM34 (UniProt P42696),1.16 °C,
AGL (UniProt P35573),0.0414 °C,-0.0942 °C
NDE1 (UniProt Q9NXR1),-0.392 °C,1.2 °C
EI24 (UniProt O14681),-0.429 °C,-4.54 °C
